Experimental data as given in patent US20090105562A1, “SYSTEM AND METHODS FOR SCREENING OR ANALYZING TARGETS” (TAIPEI VETERANS GENERAL HOSPITAL, priority 2007, published 2009).
For at least one compound, name, drawing or mass did not settle the structure.

Test system: c-FLIP
Experiment: Protein levels of c-FLIP and pro-caspases in fluoxetine-treated NSCs (Western, immunostaining)
Type: cell-based, rat
Conditions: 20, 50, and 100 M LY294002 added to FL-treated NSCs
Procedure: All animal used were treated in accordance with the Animal Care and Use Committee guideline at Taipei Veterans General Hospital. Adult Sprague-Dawley rats (8 weeks old, 250 g) were anesthetized with intraperitoneal phenobarbital (Sigma, USA). The location of their brains was mapped: then, the brain was surgically separated from the hippocampus region with the procedure. Tissues from the hippocampus of the adult SD rats were dissociated and incubated in Hank's balanced salt solution (HBSS) containing collagenase (78 units/ml) and hyaluronidase (38 units/ml) for 10 mins at 37° C. The tissues were then mechanically dissected and placed in a trypsin solution (1.33 mg/ml) at 37° C. for another 10 mins. Dissociated cells were then centrifuged at 150 g for 5 mins. […] Viable cells were counted by trypan blue exclusion and plated as 5000 cells/200 μL per well in 96-well plates (Corning, Acton, Mass.) with no substrate pretreatment. […]
An avidin-biotin complex method was used for the immunohistochemical staining in the differentiated NSCs. […] Immunoreactive signals were detected with a mixture of biotinylated rabbit antimouse IgG and Fluoesave (Calbiochem, La Jolla, Calif., USA) under immunofluorescent microscope (Olympus FV300).

## O=c1cc(N2CCOCC2)oc2c(-c3ccccc3)cccc12 [LY294002]
  c-FLIPL expression induced by FL: specifically inhibited
